Percent effect of library compounds

Data taken from ChEMBL document CHEMBL3988442, “University of Dundee, Small-Polar-MMV Screening Library” (2021).

Each number is a percent effect as filed.
How 0% and 100% were set is not recorded. Most values in the screen are low, and negative values occur.
This is an unselected part of the compounds tested.
Two or more numbers in one place are separate tests of the same structure; such repeats can differ widely.

Mtb cholesterol medium: 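Whole-cell growth test on Mycobacterium tuberculosis, read after 4 days in a medium based on cholesterol and the lipid DPPC; the read-out is not stated. Compounds at 50 µM. Higher reads as more growth inhibition (inferred: compounds with an IC50 in retests scored well above the rest). Size under these conditions: about 69,000 compounds, about 370 of them at 50% or above in at least one test.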
Mtb glucose medium: 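Growth of Mycobacterium tuberculosis over 3 days (7H9 medium with glucose and tyloxapol); the read-out is not stated. Compounds at 50 µM. Higher reads as more growth inhibition (inferred: compounds with an IC50 in retests scored well above the rest). Size under these conditions: about 69,000 compounds, about 760 of them at 50% or above in at least one test.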

Result for N#Cc1cccc(OCc2ccoc2C(=O)N2CCCCC2)c1 was Mtb cholesterol medium: 16.6%; Mtb glucose medium: 11.84%.
Result for COc1ccc(C(C)NC(=O)Cn2ccc(=O)n(C)c2=O)cc1F (centres undefined) was Mtb cholesterol medium: -22.71%; Mtb glucose medium: -19.43%.
Result for CCc1c(C)nc2ccccc2c1N1CCC(O)CC1 was Mtb cholesterol medium: 2.976% and -0.5505%; Mtb glucose medium: -2.07%.
Result for CC(Cn1cccn1)NC(=O)N(C)Cc1ccsc1 (centres undefined) was Mtb cholesterol medium: 8.541%; Mtb glucose medium: 8.613%.
Result for Cc1nc(O)cc(C2CCCN(C(=O)COCc3ccccc3)C2)n1 (centres undefined) was Mtb cholesterol medium: -21.8%; Mtb glucose medium: -5.501%.
Result for CCOCc1nc2c(c(NCc3cc(C)on3)n1)CCN(C(C)=O)CC2 was Mtb cholesterol medium: 13.38%; Mtb glucose medium: 10.34%.
Result for O=C(O)C(F)(F)F.O=C(O)C(F)(F)F.O=C(O)C(F)(F)F.[H][C@@]12CN(Cc3cccnc3OC)C[C@]1([H])OCCN2CCN(C)C was Mtb cholesterol medium: 23.16%; Mtb glucose medium: -6.75% and 12.29%.
Result for CCN1C(=O)CCC12CCCN(CCc1ccccc1)C2 (centres undefined) was Mtb cholesterol medium: 1.242%; Mtb glucose medium: -9.992%.
Result for CC(C)(C)CCNc1nccc(-c2c[nH][nH]c2=O)n1 was Mtb cholesterol medium: -9.062%; Mtb glucose medium: 13.85%.
Result for CNC(=O)c1ccc(OC)c(NCc2noc(-c3ccsc3)n2)c1 was Mtb cholesterol medium: 6.417% and 7.343%; Mtb glucose medium: -31.6%.
Result for CCc1cnc(N2CC3(CCN(C(=O)c4ccoc4)C3)C2)nc1 was Mtb cholesterol medium: -27.33%; Mtb glucose medium: -27.21%.
Result for Cc1noc(C(C)Nc2ccc3oc(C(C)C)nc3c2)n1 (centres undefined) was Mtb cholesterol medium: -6.806%; Mtb glucose medium: 15.96%.
Result for Cc1noc(C)c1CNC(=O)Nc1ccc(N2CCOC(C)C2)cc1 (centres undefined) was Mtb cholesterol medium: 4.335%; Mtb glucose medium: -1.405%.
Result for CC(=O)N[C@@H]1CN(C(=O)c2cc3ccccc3[nH]2)C[C@H]1c1ccc(C)o1 was Mtb cholesterol medium: 1.899%; Mtb glucose medium: 2.436%.
Result for CCc1c(C(=O)O)nnn1-c1cc(C)cc(C)c1 was Mtb cholesterol medium: -4.35%; Mtb glucose medium: 15.34%.
Result for O=S1(=O)CCC(N(CCc2ccc3c(c2)CCO3)C2CC2)C1 (centres undefined) was Mtb cholesterol medium: 9.799%; Mtb glucose medium: 2.772%.
Result for Cc1cc(CN2CCC(c3cc(Cc4ccccc4)n[nH]3)CC2)[nH]n1 was Mtb cholesterol medium: 1.794%; Mtb glucose medium: 2.692% and -2.335%.
Result for O=C(O)C(F)(F)F.[H][C@]12CCC[C@@]1(COc1ccccn1)CN(C(=O)c1cc(C)nn1CC)C2 was Mtb cholesterol medium: -16.56%; Mtb glucose medium: -28.58%.
Result for Cc1ccccc1CSc1nc(N)cc(N2CCOCC(CO)C2)n1 (centres undefined) was Mtb cholesterol medium: -29.68%; Mtb glucose medium: -37.5%.
Result for Brc1cc(CNCc2nnc3n2CCC3)cs1.Cl was Mtb cholesterol medium: 5.435%; Mtb glucose medium: -13.43%.
Result for O=C1CSC(c2ccsc2)c2sccc2N1 (centres undefined) was Mtb cholesterol medium: 15.2%; Mtb glucose medium: 7.299%.
Result for CC(C)c1nn(C)cc1CNCc1cccnc1N(C)C.Cl was Mtb cholesterol medium: -12.85%; Mtb glucose medium: -23.01%.
Result for OC[C@@H](O)CN(CCC(F)(F)F)c1ncc(Br)cn1 was Mtb cholesterol medium: -11.41%; Mtb glucose medium: -35.9%.
Result for Cc1cccc(C(=O)N(C)C2CCN(c3ccccn3)CC2)c1C was Mtb cholesterol medium: -8.249%; Mtb glucose medium: 19.8%.
Result for CC(=O)N1CCn2cc(CNC(=O)c3cccn3C)nc2C1 was Mtb cholesterol medium: -15.36%; Mtb glucose medium: -10.58%.
Result for Cc1noc(CN(Cc2ccc3c(c2)OCO3)C2CCCC2)n1 was Mtb cholesterol medium: -3.089%; Mtb glucose medium: 25.04%.
Result for COc1ccc(C2CC(=O)Nc3nc(N4CCOCC4)sc32)cc1 (centres undefined) was Mtb cholesterol medium: 6.528%; Mtb glucose medium: 41%.
Result for Cc1ccccc1C(C)NC(=O)CN1CCN(Cc2ccc(Br)s2)CC1 (centres undefined) was Mtb cholesterol medium: -7.191%; Mtb glucose medium: 44.26%.
Result for Cc1cc(C(=O)NCc2cccnc2N2CCc3ccccc3C2)[nH]n1 was Mtb cholesterol medium: 26.45% and -15.55%; Mtb glucose medium: 13.02%.
Result for O=C(O)C(F)(F)F.O=C(O)C(F)(F)F.O=C(O)C(F)(F)F.O=C(O)C(F)(F)F.[H][C@@]12CN(Cc3cccnc3)C[C@]1([H])[C@@H](OC)CCN2Cc1cccc(C)n1 was Mtb cholesterol medium: 1.073%; Mtb glucose medium: 7.701%.
Result for c1nc2c(c(C3CC3)n1)CCN(Cc1ccoc1)CC2 was Mtb cholesterol medium: -9.791%; Mtb glucose medium: -20.94%.
Result for CC(C)c1nc(C2CCCN2Cc2nnc(C3CCC3)o2)no1 (centres undefined) was Mtb cholesterol medium: 6.489%; Mtb glucose medium: -17.94%.
Result for CN1C(=O)CC2(CCN(S(=O)(=O)C3CC3)CC2)c2ccccc21 was Mtb cholesterol medium: 11.68%; Mtb glucose medium: 0.8344% and 4.978%.
Result for Cc1ccc(CN(C)C(=O)CN2CCCC2c2cnn(C)c2)cc1 (centres undefined) was Mtb cholesterol medium: 11.88% and 5.107%; Mtb glucose medium: -13.11%.
Result for O=C(c1ccc(-c2ccccc2)[nH]c1=O)N1CCCn2ncnc21 was Mtb cholesterol medium: -7.417%; Mtb glucose medium: 15.24% and -3.625%.
Result for Cc1cncnc1C1CCN(CC(N)=O)CC1 was Mtb cholesterol medium: -14.6%; Mtb glucose medium: -21.96%.
Result for CC(C)CNC(=O)CN(C)S(C)(=O)=O was Mtb cholesterol medium: -5.935%; Mtb glucose medium: 15.93%.
Result for O=C(O)C(F)(F)F.O=C(O)C(F)(F)F.O=C(O)C(F)(F)F.c1cc(CN2CCCC23CCCN(Cc2ccoc2)C3)ccn1 (centres undefined) was Mtb cholesterol medium: 6.347%; Mtb glucose medium: -0.5034% and -5.774%.
Result for Cc1n[nH]c(C)c1-c1cc(-c2cc[nH]c2)nc(N)c1C#N was Mtb cholesterol medium: 6.473%; Mtb glucose medium: 0.3208%.
Result for O=C(O)C(F)(F)F.[H][C@]12CCC[C@@]1(COCc1cccc(C)n1)CN(S(=O)(=O)N(C)C)C2 was Mtb cholesterol medium: -5.551%; Mtb glucose medium: 2.97% and 14.33%.
Result for Cc1ccccc1CCC(=O)N1CCc2ncnc(NCCO)c2CC1 was Mtb cholesterol medium: 12.72%; Mtb glucose medium: -0.5564% and -12.87%.

For reference, 2 entries once more:

Result for O=S1(=O)CCC(N(CCc2ccc3c(c2)CCO3)C2CC2)C1 (centres undefined) was Mtb cholesterol medium: 9.799%; Mtb glucose medium: 2.772%.
Result for Cc1cccc(C(=O)N(C)C2CCN(c3ccccn3)CC2)c1C was Mtb cholesterol medium: -8.249%; Mtb glucose medium: 19.8%.